Assay results taken from PubChem BioAssay AID2551 (National Center for Advancing Translational Sciences (NCATS), 2010).
Hit rate of the full screen: of about 310,000 compounds, about 17,000 (5.5%) were called active. Inconclusive means that the source gave no clear call. Such entries were picked first, then a sample of the others. Calls follow the shape of the dose curve; as a rule, active = well fitted inhibition curve with a large enough effect; inconclusive = small, poorly fitted or top-dose-only effect, or effect the other way; inactive = no such curve, though single readings can be large or run the other way. Where the call is inconclusive, the potency comes from a doubtful curve fit.

Chains of the proteins cited; added tags and fusions are not shown. Lines headed by an entry give the natural chain unless they say otherwise; changes in a name come on top.
UniProt P51450: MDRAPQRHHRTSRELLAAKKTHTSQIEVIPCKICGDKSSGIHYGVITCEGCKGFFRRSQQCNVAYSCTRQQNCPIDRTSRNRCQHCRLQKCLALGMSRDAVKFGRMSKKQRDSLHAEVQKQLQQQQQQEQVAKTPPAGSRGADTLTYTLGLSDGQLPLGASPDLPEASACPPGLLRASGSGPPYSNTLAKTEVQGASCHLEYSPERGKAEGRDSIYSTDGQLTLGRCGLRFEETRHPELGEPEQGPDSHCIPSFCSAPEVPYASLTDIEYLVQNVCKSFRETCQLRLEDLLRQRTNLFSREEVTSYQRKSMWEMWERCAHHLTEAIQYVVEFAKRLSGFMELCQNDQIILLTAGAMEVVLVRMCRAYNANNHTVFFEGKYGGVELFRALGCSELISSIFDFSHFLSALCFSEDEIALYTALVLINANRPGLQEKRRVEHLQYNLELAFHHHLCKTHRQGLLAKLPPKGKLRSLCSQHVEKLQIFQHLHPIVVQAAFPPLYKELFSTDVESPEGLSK

molecular target: Nuclear receptor ROR-gamma (Mus musculus) (UniProt P51450); assay: qHTS for inhibitors of ROR gamma transcriptional activity; conditions: Drosophila S2 Gal4-RORgamma UAS-luciferase reporter, 20 h; activity change, negative = inhibition: at 53.6 µM (top of the series); also: nearly all actives have a fitted effect of over 60% in size
Procedure, shortened: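 Stable Schneider cell line, Gal4 DNA-binding domain fused to ROR gamma, UAS-luciferase. Cmpd 1 hr RT → CuSO4 700 uM final → 20 hr RT → luciferase reagent 10 min → luminescence.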
% is scaled to controls: 0 for no effect and ±100 for the full control effect; potency is read from the fitted curve at half-maximal effect.

Structure (SMILES)	Potency	activity change, negative = inhibition
O=C(NC(=S)Nc1nc(-c2cccc([N+](=O)[O-])c2)cs1)c1cc(Cl)ccc1Cl	inconclusive: 3.16 µM [inhibitor, single point]	
COc1ccc(N2CCC(CNC(=S)Nc3ccc(C)cc3C)C2)cc1 (stereo unspecified)	active: 0.631 µM	
CC1=CC(C)(C)N(C(=O)CSc2nncn2C)c2ccccc21	inconclusive: 6.31 µM [activator, single point]	
CCOc1ccc2nc(N=NC3=C(O)CC(C)(C)CC3=O)sc2c1	active: 2.24 µM	
O=C(C1CC(c2ccc(F)cc2)=NO1)N1CCCCC1 (stereo unspecified)	inactive	
COc1ccc(-c2ncncc2-c2ccc(OC)c(OC)c2)c(O)c1	inactive	
COc1cc(NC(=O)c2ccccc2)c(OC)cc1NC(=O)Cc1ccc(C)cc1	inconclusive: 35.5 µM [inhibitor, single point]	
CCC(=O)N(CCN1CCOCC1)Cc1cc2cc3c(cc2nc1Cl)OCO3	inconclusive: 35.5 µM [activator, single point]	
COCCn1c(=O)c(-c2cccs2)nc2cnc(Nc3ccccc3)nc21	inactive	
Cc1ccc(NC(=O)C2CCN(c3ncnc4c3nc3n4CCCCC3)CC2)nc1	inconclusive: 14.1 µM [activator, single point]	
CC(OC(=O)c1cc2ccccc2cc1O)C(=O)Nc1ccc(S(N)(=O)=O)cc1 (stereo unspecified)	inactive	
C/C(=N\OCc1ccc(C#N)cc1)c1ccc(S(=O)(=O)N(C)C)cc1	inconclusive: 35.5 µM [activator, single point]	
O=C(Cn1c2c(sc1=O)C1c3ccccc3OCC1CS2)Nc1ccc(Cl)c(Cl)c1 (stereo unspecified)	inconclusive: 35.5 µM [inhibitor, single point]	
CCCc1ccc(OCC(=O)NNC(=S)NC(=O)c2ccco2)cc1	active: 12.6 µM	
Cc1cc(NC(=O)COC(=O)CSc2nc3cc(Cl)ccc3n2Cc2ccccc2)no1	inconclusive: 0.112 µM [inhibitor, single point]	
Cc1ccc(CNC(=O)c2nn(C)c3c2CS(=O)(=O)c2ccccc2-3)cc1	inactive	
O=C(N/N=C/c1cc(Br)ccc1OC(=O)c1ccc(Br)cc1)c1ccncc1	active: 2.82 µM	
O=C(O)/C(=C\c1ccco1)NC(=O)c1ccccc1		inactive: -6.51% [at 10 µM]
CC1CCCN(CCCNC(=O)CCn2nc(-c3ccccc3)ccc2=O)C1 (stereo unspecified)	inactive	
COc1ccc2nc(NC(=O)CSc3nc(C)cc(=O)[nH]3)sc2c1	inconclusive: 5.62 µM [inhibitor, single point]	
C=CCn1c(-c2ccc(OC)cc2)nc2ccccc21	inconclusive: 8.91 µM [activator, partial curve]	
Cc1cccc(N=C2NC(=O)/C(=C/c3cn(C)c4ccccc34)S2)c1	active: 12.6 µM	
Cc1ccccc1NC(=S)N(Cc1ccco1)C(C)c1ccccn1 (stereo unspecified)	active: 12.6 µM	
NC(=O)NC(=O)COC(=O)CCCSc1nc2ccccc2s1	active: 11.2 µM	

Structure (SMILES)	Potency	activity change, negative = inhibition
Nc1cc(S(=O)(=O)N2CCOCC2)ccc1Oc1ccc(F)cc1	inconclusive: 10 µM [activator, partial curve]	
CCOc1ccc(N(C)S(=O)(=O)c2cc(-c3cc(C)no3)ccc2CC)cc1	inconclusive: 35.5 µM [activator, single point]	
CC(=O)Nc1ccc(S(=O)(=O)N2CCN=C2SCc2ccc(C)cc2)cc1	inconclusive: 10 µM [activator, single point]	
N#Cc1c(NC(=O)COC(=O)c2ccc(S(=O)(=O)N3CCCC3)cc2)sc2c1CCCCC2	inconclusive: 1.12 µM [activator, full curve, poor fit]	
Cc1nc(Cl)cc(N/N=C/c2ccc(O)cc2O)n1	inconclusive: 8.91 µM [inhibitor, partial curve]	
CCNC(=O)NC(=O)C(C)OC(=O)c1oc2ccccc2c1CSC1CCCCC1 (stereo unspecified)	inactive	
Cc1ccc(C(=O)N/C(=C\c2cccc([N+](=O)[O-])c2)C(=O)Nc2cccc(C(=O)O)c2)cc1	inconclusive: 1.26 µM [activator, single point]	
Cc1cccc(NC(=O)c2ccc3c(c2)OCCO3)n1	inconclusive: 14.1 µM [inhibitor, single point]	
O=[N+]([O-])c1ccc(N2CCN(Cc3cccc([N+](=O)[O-])c3)CC2)cc1	inconclusive: 20 µM [activator, single point]	
CNC(CC(=O)c1ccc([N+](=O)[O-])cc1)C(Cl)(Cl)Cl (stereo unspecified)	inconclusive: 25.1 µM [inhibitor, single point]	
COc1ccc(-c2csc(Nc3cccc(C)n3)n2)cc1C	inconclusive: 17.8 µM [inhibitor, single point]	
Cc1csc(NC(=O)c2ccc(OCC3CCCO3)cc2)n1 (stereo unspecified)	active: 3.55 µM	
C=CCOC(=O)C1=C[C@@H](c2ccc(C(F)(F)F)cc2)[C@H](CCCO)[C@@H](OCC)O1	inactive	
C[C@@H](C(=O)NCCc1ccccc1F)N1C(=O)N2CCc3c([nH]c4ccccc34)[C@@]2(C)C1=O	inactive	
CCOC(=O)[C@@H]1[C@H]2COc3ccc(Br)cc3[C@@H]2N2C(=O)N(c3ccccc3)C(=O)[C@@]12C	active: 10 µM	
O=C(NCc1ccc2c(c1)OCO2)c1cc(COc2c(F)cccc2F)on1	inconclusive: 35.5 µM [activator, single point]	
Oc1ccc(Nc2nc3ccccc3nc2Nc2ccc(O)cc2)cc1	active: 15.8 µM	
Cc1c(NC(=O)c2ccc([N+](=O)[O-])o2)cccc1-c1nc2ncccc2o1	inconclusive: 11.2 µM [inhibitor, single point]	
O=C(NC(NC(=S)Nc1ccc(Cl)cc1Cl)C(Cl)(Cl)Cl)c1cccc([N+](=O)[O-])c1 (stereo unspecified)	inconclusive: 25.1 µM [inhibitor, single point]	
COc1cc(-c2n[nH]c(=S)n2C(C)c2ccccc2)cc(OC)c1OC (stereo unspecified)	inconclusive: 14.1 µM [inhibitor, partial curve, poor fit]	
O=C(Nc1ccccc1)Nc1cc(Cl)cc(Cl)c1	inconclusive: 20 µM [activator, single point]	
O=C(c1ccco1)N(CCC(c1ccccc1)c1ccco1)Cc1ccc(F)cc1 (stereo unspecified)	inconclusive: 17.8 µM [activator, single point]	
N#Cc1c(-c2cccs2)cc(-c2ccccn2)nc1N	inconclusive: 5.01 µM [inhibitor, single point]	
C=CCn1c(SC)nnc1-c1ccc2ncccc2c1	inconclusive: 4.47 µM [activator, full curve, poor fit]	

Structure (SMILES)	Potency	activity change, negative = inhibition
COc1ccc(S(=O)(=O)N2CCOCC2)c(Cl)c1Cl	inconclusive: 0.0794 µM [inhibitor, partial curve, poor fit]	
C=CCn1c(SCC(C)=O)nc2scc(-c3ccco3)c2c1=O	inconclusive: 10 µM [inhibitor, single point]	
O=C(CN1CCC(c2nc3ccccc3s2)CC1)NCc1ccccc1	inconclusive: 7.08 µM [activator, full curve, poor fit]	
CCn1c(SC)nnc1C1CCCN(CC(=O)Nc2ccccc2N2CCOCC2)C1 (stereo unspecified)	inactive	
Oc1cccc2ccc(/C=C/c3c(F)cccc3Cl)nc12	active: 3.16 µM	
Cn1cc(CN2CCCC(CO)(Cc3ccccc3)C2)c2ccccc21 (stereo unspecified)	inactive	
COc1cccc(-c2cc(C(=O)N/N=C/c3ccco3)c3ccccc3n2)c1	active: 3.16 µM	
CCOC(=O)c1sc(NC(=O)CSc2n[nH]c(-c3ccccc3)n2)c(C#N)c1C	active: 1.26 µM	
Clc1ccc(-c2nnc(-c3ccco3)o2)cc1	inconclusive: 35.5 µM [activator, single point]	
Cc1cccc2c1N(CCOc1ccccc1Cl)C(=O)C2=O	inactive	
CCCn1cc(SCC(=O)NCc2ccc3c(c2)OCO3)c2ccccc21	inconclusive: 31.6 µM [activator, single point]	
CCOC(=O)c1cc(-c2ccccc2)nc2ccc(C)cc12	inactive	
Cc1ccc(S(=O)(=O)N2CCC(=O)N(C(COCc3cccc(C(F)(F)F)c3)C(C)C)CC2)cc1 (stereo unspecified)	inconclusive: 11.2 µM [activator, single point]	
Cc1ccccc1NC(=O)Cc1nnc(SCC(=O)c2ccc(Br)cc2)n1C	inconclusive: 35.5 µM [inhibitor, single point]	
N#CC1=C(N)NC(=S)C(C(N)=O)C1c1ccc(Cl)cc1Cl (stereo unspecified)	inconclusive: 35.5 µM [inhibitor, single point]	
O=C(CCl)Nc1cccc(S(=O)(=O)NC2=NCCC2)c1	inconclusive: 14.1 µM [inhibitor, single point]	
CN(Cc1ccccc1)Cc1nc2c(c(=O)n(C)c(=O)n2C)n1CCCc1ccccc1	inconclusive: 12.6 µM [inhibitor, single point]	
O=c1[nH][nH]c(-c2ccccc2O)c1C(C[N+](=O)[O-])c1ccc(Br)cc1 (stereo unspecified)	inconclusive: 35.5 µM [inhibitor, single point]	
COC(=O)Cc1ccc(NC(=S)NCc2cccc(OC)c2)cc1	active: 12.6 µM	
CCOc1ccc(-n2c(N)c(-c3nc4ccccc4n3C)c3nc4ccccc4nc32)cc1	active: 1 µM	
COC(=O)C1=C(C)N(C)C(=S)NC1c1cc(OC)ccc1OC (stereo unspecified)	active: 15.8 µM	
CCS(=O)(=O)n1nc(-c2ccc(Cl)cc2)nc1SC	inconclusive: 35.5 µM [inhibitor, single point]	
O=C(Nc1ccccc1F)c1cc2c(s1)-c1ccccc1S(=O)(=O)C2	inconclusive: 0.0045 µM [inhibitor, full curve, poor fit]	

A second format for part of the listing above:
COc1ccc(S(=O)(=O)N2CCOCC2)c(Cl)c1Cl
  Potency: inconclusive: 0.0794 µM [inhibitor, partial curve, poor fit]
CCOC(=O)c1sc(NC(=O)CSc2n[nH]c(-c3ccccc3)n2)c(C#N)c1C
  Potency: active: 1.26 µM
CCS(=O)(=O)n1nc(-c2ccc(Cl)cc2)nc1SC
  Potency: inconclusive: 35.5 µM [inhibitor, single point]
